Data on five molecules can be found in patent US20160010082A1.

Chains of the proteins cited; added tags and fusions are not shown. Lines headed by an entry give the natural chain unless they say otherwise; changes in a name come on top. A line that says so, or that is headed by a name, gives the form on record, which may keep a tag or linker.
biotinylated vascular endothelial growth factor (P15692, form named): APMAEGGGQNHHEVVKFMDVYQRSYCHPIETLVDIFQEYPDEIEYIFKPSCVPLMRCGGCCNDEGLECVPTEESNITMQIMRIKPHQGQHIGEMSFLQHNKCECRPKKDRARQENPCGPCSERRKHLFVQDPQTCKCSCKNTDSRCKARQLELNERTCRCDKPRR

Experiment [1] has as its target biotinylated vascular endothelial growth factor (UniProt P15692). Put plainly: flow cytometry of E. coli displaying the construct, 65 nM biotinylated VEGF then 10 nM SA-PE. A general note: In flow cytometry, cells or beads pass a laser one at a time.
Experiment [2] addresses streptavidin-R-phycoerythrin (UniProt P22629). Put plainly: two-colour flow cytometry, 100 nM SA-PE alone or with 40 nM YPet-Mona.
Experiment [3] has the same target. Put plainly: flow cytometry of E. coli displaying SApep, 100 nM SA-PE; 0, 30, 60 and 90 minutes of induction.
Experiment [4] has the same target. Put plainly: flow cytometry of E. coli displaying the construct, SA-PE.
The target is the same in experiment [5]. Put plainly: flow cytometry of E. coli displaying the construct, fluorescently-conjugated streptavidin.
For experiment [6] the target is unchanged. Put plainly: two-colour flow cytometry, SA-PE and YPet-Mona.
The target is the same in experiment [7]. Put plainly: two-colour flow cytometry, SA-PE and YPet-mona.

These are yes or no findings as the source states them, for the method shown. Some results given as binding are weak or reduced against the parent protein; the word gives no strength. For part of these data: Tags and fused reporters may be left off the sequences shown.

B1: CPX displaying the VEGF binding peptide at the N-terminus (protein)
chain: GQSGQVEPNCDIHVMWEWECFERLGGQSGQSGDYNKNQYYGITAGPAYRINDWASIYGVVGVGYGKFQTTEYPTYKHDTSDYGFSYGAGLQFNPMENVALDFSYEQSRIRSVDVGTWIAGVGYRFGGSGATSTVTGGYAQSDAQGQMNKMGGFNLKYRYEEDNSPLGVIGSFTYTEKSRTAS
Take B1: in experiment [1], the binding entry is on record as “binds”.

B2: eCPX-nSApep-cP2 (protein)
chain: GQSGQAECHPQGPPCIEGRKGGQSGQSGDYNKNQYYGITAGPAYRINDWASIYGVVGVGYGKFQTTEYPTYKHDTSDYGFSYGAGLQFNPMENVALDFSYEQSRIRSVDVGTWILSVGYRFGSKSRRATSTVTGGYAQSDAQGQMNKMGGFNLKYRYEEDNSPLGVIGSFTYTEKSRTASGGQSGQPAPSIDRSTKPPL
In the case of B2, in experiment [2], the binding entry was “binds”.

B3: CPX-L2-1 (enhanced CPX, eCPX) displaying SApep at the N-terminus (protein)
chain: GQSGQAECHPQGPPCIEGRKGGQSGQSGDYNKNQYYGITAGPAYRINDWASIYGVVGVGYGKFQTTEYPTYKHDTSDYGFSYGAGLQFNPMENVALDFSYEQSRIRSVDVGTWILSVGYRFGSKSRRATSTVTGGYAQSDAQGQMNKMGGFNLKYRYEEDNSPLGVIGSFTYTEKSRTAS
Consider B3, for which, in experiment [3], the binding result is listed as “binds”.

B4: CPX with the streptavidin binding peptide fused to the N-terminus (pB33CPX-SApep) (protein)
chain: GQSGQAECHPQGPPCIEGRKGGQSGQSGDYNKNQYYGITAGPAYRINDWASIYGVVGVGYGKFQTTEYPTYKHDTSDYGFSYGAGLQFNPMENVALDFSYEQSRIRSVDVGTWIAGVGYRFGGSGATSTVTGGYAQSDAQGQMNKMGGFNLKYRYEEDNSPLGVIGSFTYTEKSRTAS
With B4, the binding result in experiment [3], in experiment [4] and in experiment [5] was “binds” throughout.

B5: eCPX-nSApep-linker-cP2 (protein)
chain: GQSGQAECHPQGPPCIEGRKGGGSGGGSGGGSGGGSGGGSGGQSGQSGDYNKNQYYGITAGPAYRINDWASIYGVVGVGYGKFQTTEYPTYKHDTSDYGFSYGAGLQFNPMENVALDFSYEQSRIRSVDVGTWILSVGYRFGSKSRRATSTVTGGYAQSDAQGQMNKMGGFNLKYRYEEDNSPLGVIGSFTYTEKSRTASGGQSGQPAPSIDRSTKPPL
Take B5: the binding result in experiment [6], in experiment [2] and in experiment [7] was “binds” throughout.
